Data reported in the supplement of paper PMC12819154, “High-throughput peptide-centric local stability assay extends protein–ligand identification to membrane proteins, tissues and bacteria” (Nature Structural & Molecular Biology, 2025).
The other results are listed elsewhere or left out. Most entries show no effect beyond the scatter of the controls.

Amino acid sequences for entries named in this document (tags omitted). A change or cut given only in a name is not applied to a line headed by its entry.
UniProt Q9UK45: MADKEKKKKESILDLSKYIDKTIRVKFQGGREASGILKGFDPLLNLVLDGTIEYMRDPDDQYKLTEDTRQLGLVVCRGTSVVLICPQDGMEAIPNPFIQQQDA
UniProt Q9UGM6: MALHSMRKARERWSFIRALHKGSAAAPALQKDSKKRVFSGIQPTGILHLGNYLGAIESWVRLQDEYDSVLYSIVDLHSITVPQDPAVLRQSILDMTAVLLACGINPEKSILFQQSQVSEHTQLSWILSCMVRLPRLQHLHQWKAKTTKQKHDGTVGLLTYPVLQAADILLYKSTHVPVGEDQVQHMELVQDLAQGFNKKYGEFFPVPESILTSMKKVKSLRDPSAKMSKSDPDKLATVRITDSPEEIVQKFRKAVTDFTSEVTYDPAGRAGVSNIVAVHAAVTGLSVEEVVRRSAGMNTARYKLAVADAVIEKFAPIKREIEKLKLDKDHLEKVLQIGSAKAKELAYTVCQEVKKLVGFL
UniProt Q9UHN1: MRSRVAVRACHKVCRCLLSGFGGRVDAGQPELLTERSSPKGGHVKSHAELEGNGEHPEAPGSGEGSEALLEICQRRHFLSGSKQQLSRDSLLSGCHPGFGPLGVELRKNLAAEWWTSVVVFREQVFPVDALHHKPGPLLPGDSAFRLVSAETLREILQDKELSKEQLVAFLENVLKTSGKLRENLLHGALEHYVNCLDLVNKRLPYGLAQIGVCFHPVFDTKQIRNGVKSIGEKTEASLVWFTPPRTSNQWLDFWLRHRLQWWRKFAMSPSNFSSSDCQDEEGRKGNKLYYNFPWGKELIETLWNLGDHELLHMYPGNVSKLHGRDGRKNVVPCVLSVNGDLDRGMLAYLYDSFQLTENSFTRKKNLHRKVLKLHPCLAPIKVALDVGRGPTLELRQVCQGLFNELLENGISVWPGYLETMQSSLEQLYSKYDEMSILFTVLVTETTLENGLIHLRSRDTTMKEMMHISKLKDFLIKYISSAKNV
UniProt Q9NZJ4: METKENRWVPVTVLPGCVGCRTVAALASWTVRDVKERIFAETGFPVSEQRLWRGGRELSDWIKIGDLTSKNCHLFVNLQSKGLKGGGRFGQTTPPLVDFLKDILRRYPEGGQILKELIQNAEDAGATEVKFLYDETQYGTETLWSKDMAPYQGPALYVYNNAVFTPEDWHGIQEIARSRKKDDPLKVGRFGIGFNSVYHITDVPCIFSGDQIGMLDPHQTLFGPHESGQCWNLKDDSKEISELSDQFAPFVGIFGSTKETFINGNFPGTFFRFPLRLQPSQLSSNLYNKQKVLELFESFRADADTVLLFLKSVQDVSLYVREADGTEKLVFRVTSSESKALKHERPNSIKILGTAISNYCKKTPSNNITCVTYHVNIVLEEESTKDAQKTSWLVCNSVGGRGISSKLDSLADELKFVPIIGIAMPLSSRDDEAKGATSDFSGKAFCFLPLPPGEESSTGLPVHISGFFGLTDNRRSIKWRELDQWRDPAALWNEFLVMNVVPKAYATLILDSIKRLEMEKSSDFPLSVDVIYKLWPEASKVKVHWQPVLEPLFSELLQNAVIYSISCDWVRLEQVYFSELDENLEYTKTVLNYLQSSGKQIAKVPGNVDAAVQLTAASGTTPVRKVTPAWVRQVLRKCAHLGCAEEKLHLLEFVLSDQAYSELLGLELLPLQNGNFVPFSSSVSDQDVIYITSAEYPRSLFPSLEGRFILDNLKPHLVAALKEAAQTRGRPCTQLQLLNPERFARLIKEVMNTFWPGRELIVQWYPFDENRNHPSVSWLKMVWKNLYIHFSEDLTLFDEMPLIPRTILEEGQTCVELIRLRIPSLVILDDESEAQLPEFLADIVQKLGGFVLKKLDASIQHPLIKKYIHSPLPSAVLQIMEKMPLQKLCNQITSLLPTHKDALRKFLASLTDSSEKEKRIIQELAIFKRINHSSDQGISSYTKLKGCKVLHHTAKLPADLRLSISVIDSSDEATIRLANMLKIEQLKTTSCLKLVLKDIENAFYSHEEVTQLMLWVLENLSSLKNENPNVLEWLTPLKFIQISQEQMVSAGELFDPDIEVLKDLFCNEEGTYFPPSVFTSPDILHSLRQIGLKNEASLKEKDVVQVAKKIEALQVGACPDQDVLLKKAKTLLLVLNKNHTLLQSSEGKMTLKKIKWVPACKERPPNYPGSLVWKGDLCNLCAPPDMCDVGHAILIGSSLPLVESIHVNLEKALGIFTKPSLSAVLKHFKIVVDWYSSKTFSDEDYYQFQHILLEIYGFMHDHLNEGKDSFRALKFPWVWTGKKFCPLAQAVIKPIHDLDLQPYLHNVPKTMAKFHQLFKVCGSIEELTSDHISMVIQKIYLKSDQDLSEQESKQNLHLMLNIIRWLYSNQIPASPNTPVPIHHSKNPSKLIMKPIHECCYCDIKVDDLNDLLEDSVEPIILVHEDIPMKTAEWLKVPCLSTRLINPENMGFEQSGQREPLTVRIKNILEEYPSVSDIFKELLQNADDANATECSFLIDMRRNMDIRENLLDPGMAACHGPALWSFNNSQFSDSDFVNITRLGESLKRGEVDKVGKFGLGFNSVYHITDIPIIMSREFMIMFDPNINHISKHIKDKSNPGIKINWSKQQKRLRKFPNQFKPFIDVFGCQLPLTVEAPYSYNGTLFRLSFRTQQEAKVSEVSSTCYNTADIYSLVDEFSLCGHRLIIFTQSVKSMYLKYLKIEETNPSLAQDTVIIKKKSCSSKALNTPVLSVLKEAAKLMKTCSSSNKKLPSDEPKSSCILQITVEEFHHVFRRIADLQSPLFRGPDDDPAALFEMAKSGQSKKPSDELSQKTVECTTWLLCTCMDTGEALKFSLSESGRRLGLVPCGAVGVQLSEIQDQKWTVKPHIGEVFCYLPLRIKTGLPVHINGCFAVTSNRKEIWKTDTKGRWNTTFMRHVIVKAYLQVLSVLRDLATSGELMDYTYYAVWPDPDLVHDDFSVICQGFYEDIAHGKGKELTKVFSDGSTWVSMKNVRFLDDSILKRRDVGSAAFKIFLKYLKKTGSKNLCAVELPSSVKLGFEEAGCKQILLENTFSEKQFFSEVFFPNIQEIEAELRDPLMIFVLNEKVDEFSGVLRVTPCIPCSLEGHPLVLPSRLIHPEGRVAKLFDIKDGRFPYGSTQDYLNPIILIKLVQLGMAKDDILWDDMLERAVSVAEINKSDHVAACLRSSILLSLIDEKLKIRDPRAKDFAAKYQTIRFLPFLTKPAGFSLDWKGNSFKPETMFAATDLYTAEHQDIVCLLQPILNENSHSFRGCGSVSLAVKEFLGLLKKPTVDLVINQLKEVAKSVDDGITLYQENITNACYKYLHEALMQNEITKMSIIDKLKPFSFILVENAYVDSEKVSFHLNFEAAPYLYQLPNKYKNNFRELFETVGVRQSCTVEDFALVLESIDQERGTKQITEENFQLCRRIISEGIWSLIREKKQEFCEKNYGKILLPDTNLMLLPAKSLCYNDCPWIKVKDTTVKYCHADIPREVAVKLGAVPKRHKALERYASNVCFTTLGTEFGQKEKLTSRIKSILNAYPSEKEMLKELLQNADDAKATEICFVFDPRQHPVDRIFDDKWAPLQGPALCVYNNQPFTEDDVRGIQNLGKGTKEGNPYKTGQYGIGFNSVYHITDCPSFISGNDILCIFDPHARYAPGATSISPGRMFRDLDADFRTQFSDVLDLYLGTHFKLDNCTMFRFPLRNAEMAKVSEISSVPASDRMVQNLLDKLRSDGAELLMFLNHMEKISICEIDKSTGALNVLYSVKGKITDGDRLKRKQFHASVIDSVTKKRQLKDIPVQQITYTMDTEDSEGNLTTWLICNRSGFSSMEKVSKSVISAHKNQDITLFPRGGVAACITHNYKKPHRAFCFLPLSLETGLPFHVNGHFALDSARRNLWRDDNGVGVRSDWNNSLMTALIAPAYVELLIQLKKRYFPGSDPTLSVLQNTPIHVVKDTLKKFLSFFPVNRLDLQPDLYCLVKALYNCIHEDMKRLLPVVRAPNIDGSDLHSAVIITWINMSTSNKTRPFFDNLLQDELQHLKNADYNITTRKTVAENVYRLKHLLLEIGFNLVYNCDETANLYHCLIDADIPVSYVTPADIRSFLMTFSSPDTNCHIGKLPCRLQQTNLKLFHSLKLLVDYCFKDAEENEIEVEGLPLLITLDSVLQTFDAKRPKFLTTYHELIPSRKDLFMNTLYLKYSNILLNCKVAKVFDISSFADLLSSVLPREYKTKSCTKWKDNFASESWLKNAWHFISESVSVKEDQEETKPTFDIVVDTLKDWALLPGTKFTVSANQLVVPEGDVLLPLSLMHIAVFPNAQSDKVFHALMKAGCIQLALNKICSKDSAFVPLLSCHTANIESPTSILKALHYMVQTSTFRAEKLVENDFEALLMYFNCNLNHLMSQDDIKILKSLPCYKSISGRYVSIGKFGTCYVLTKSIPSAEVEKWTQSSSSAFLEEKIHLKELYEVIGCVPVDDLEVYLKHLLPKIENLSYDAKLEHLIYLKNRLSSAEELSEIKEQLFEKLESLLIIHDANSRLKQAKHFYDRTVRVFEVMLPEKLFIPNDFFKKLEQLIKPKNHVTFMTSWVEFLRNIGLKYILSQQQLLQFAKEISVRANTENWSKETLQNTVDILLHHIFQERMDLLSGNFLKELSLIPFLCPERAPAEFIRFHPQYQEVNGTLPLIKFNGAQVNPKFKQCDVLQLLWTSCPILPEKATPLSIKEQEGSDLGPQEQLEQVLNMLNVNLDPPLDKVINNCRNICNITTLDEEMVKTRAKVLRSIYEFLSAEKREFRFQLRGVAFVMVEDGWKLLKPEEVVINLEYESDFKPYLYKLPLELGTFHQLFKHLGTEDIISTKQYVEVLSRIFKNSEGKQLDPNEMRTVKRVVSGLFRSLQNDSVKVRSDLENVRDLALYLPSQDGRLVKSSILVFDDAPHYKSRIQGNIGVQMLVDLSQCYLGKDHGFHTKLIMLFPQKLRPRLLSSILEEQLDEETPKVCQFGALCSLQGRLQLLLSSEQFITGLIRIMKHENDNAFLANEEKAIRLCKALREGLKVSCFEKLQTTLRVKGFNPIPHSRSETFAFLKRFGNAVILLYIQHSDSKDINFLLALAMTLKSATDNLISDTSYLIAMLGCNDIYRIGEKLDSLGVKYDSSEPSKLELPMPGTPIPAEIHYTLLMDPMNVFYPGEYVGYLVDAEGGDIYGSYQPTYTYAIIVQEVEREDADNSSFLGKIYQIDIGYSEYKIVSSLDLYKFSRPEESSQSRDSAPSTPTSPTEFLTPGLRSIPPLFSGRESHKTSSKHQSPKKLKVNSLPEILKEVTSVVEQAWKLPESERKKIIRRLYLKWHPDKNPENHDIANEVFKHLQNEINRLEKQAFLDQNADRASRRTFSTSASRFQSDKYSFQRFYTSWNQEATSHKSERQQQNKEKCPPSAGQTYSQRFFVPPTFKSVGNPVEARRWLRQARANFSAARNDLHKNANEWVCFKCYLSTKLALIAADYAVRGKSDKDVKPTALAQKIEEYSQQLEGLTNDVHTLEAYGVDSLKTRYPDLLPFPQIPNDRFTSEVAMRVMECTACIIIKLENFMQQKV
UniProt Q9UGR2: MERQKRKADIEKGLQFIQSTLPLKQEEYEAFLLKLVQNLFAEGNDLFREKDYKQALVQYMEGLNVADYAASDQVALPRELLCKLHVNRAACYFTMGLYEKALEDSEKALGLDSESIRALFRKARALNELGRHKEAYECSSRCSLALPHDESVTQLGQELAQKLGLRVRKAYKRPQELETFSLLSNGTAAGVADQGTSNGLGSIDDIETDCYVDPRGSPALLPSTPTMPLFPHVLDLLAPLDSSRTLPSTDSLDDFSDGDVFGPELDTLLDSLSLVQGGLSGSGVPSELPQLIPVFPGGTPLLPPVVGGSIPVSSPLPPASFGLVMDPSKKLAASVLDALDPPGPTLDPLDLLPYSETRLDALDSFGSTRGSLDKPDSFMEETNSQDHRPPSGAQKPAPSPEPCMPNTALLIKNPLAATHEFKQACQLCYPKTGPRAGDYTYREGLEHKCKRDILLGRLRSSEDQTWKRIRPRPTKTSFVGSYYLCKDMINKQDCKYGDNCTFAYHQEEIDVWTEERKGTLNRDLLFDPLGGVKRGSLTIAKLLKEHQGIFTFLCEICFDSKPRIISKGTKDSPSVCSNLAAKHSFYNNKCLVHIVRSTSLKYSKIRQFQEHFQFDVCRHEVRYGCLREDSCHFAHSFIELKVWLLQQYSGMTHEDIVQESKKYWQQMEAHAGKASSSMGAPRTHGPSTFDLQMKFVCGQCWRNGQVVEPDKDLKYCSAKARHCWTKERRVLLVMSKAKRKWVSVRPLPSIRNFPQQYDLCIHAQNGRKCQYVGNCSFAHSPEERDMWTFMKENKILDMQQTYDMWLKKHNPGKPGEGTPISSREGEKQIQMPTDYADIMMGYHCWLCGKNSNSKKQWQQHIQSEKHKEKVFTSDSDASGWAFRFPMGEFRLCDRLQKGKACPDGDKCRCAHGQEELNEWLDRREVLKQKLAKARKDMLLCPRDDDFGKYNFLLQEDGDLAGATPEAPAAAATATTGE

compound: CN[C@@H]1C[C@H]2O[C@@](C)([C@@H]1OC)n1c3ccccc3c3c4c(c5c6ccccc6n2c5c31)C(=O)NC4 [staurosporine]; assay: log2 fold change of tryptic peptide abundance, ligand vs vehicle (limited proteolysis) (log2 ratio); higher = more trypsin-susceptible (destabilized); details: ligand concentration: 20 uM; sample: K562 cleared lysate; digestion: 4 min, 22 C (HT-PELSA RT4min, Orbitrap Astral)

Row | Target | log2 fold change
1 | TUBGCP4 (peptide sequence: VEILPSYIPVR, peptide start residue: 261) (UniProt Q9UGJ1) | 0.111
2 | CTTNBP2NL (peptide sequence: VILDLEEER, peptide start residue: 111) (UniProt Q9P2B4) | -0.413
3 | RAI14 (peptide sequence: AAMTDAMVPR, peptide start residue: 777) (UniProt Q9P0K7) | 0.393
4 | ATP6V1H (peptide sequence: TFINLMTHICK, peptide start residue: 76) (UniProt Q9UI12) | 0.275
5 | UniProt Q9NZV7 (peptide sequence: EVMLENYR, peptide start residue: 51) | -0.157
6 | BCAP29 (peptide sequence: KLVEDQEK, peptide start residue: 179) (UniProt Q9UHQ4) | 0.38
7 | NDRG3 (peptide sequence: GNRPVILTYHDIGLNHK, peptide start residue: 52) (UniProt Q9UGV2) | 0.198
8 | MRPL15 (peptide sequence: KYGYILPDITKDELFK, peptide start residue: 239) (UniProt Q9P015) | -0.478
9 | EVL (peptide sequence: SPLQSQPHSR, peptide start residue: 354) (UniProt Q9UI08) | 0.207
10 | UniProt Q9P2Q2 (peptide sequence: IKEYPLYIEGGATPVVVR, peptide start residue: 834) | -0.355
11 | MLX (peptide sequence: KQEEEVSTLRK, peptide start residue: 193) (UniProt Q9UH92) | 0.0763
12 | UniProt Q9P2S5 (peptide sequence: MITEFGHPAAINDPK, peptide start residue: 257) | -0.412
13 | UniProt Q9P2H5 (peptide sequence: SELAGFYPR, peptide start residue: 423) | -0.395
14 | ANKFY1 (peptide sequence: HGCDATCWGPGPGGCLQTLLHR, peptide start residue: 710) (UniProt Q9P2R3) | -0.512
15 | HDAC6 (peptide sequence: HAQTISGHALR, peptide start residue: 632) (UniProt Q9UBN7) | 0.328
16 | NCDN (peptide sequence: EGAPSLLCK, peptide start residue: 484) (UniProt Q9UBB6) | 0.583
17 | LSM7 (peptide sequence: KKESILDLSK, peptide start residue: 8) (UniProt Q9UK45) | 0.293
18 | SMARCAL1 (peptide sequence: IGQTSSVGIHYLVAK, peptide start residue: 821) (UniProt Q9NZC9) | -0.331
19 | PEF1 (peptide sequence: LSFEDFVTMTASR, peptide start residue: 270) (UniProt Q9UBV8) | -0.308

Row | Target | log2 fold change
20 | UniProt Q9UK11 (peptide sequence: DVMLENFR, peptide start residue: 35) | 0.0325
21 | VPS54 (peptide sequence: EPTGDSHSLYVAPSLVTDQHR, peptide start residue: 43) (UniProt Q9P1Q0) | -0.651
22 | DDX20 (peptide sequence: VFEEKTQHLQELFSR, peptide start residue: 292) (UniProt Q9UHI6) | -0.615
23 | SERGEF (peptide sequence: VTYLSPDAIEDTESQK, peptide start residue: 414) (UniProt Q9UGK8) | -0.0742
24 | COPS7A (peptide sequence: QQIESEVANLKK, peptide start residue: 207) (UniProt Q9UBW8) | -0.0402
25 | DAXX (peptide sequence: GTRYPEVNR, peptide start residue: 261) (UniProt Q9UER7) | 0.497
26 | FAM135A (peptide sequence: SVVPECHLNDSK, peptide start residue: 858) (UniProt Q9P2D6) | -0.336
27 | PHRF1 (peptide sequence: AQTVQAVR, peptide start residue: 870) (UniProt Q9P1Y6) | 0.303
28 | EGFL7 (peptide sequence: NGGSCVQPGR, peptide start residue: 113) (UniProt Q9UHF1) | -0.419
29 | WARS2 (peptide sequence: YKLAVADAVIEK, peptide start residue: 302) (UniProt Q9UGM6) | 0.518
30 | POLG2 (peptide sequence: VDAGQPELLTER, peptide start residue: 25) (UniProt Q9UHN1) | -0.00441
31 | BAHCC1 (peptide sequence: SEAAYGTNTAR, peptide start residue: 719) (UniProt Q9P281) | 0.377
32 | MORF4L1 (peptide sequence: QKTPGNGDGGSTSETPQPPRK, peptide start residue: 154) (UniProt Q9UBU8) | -0.459
33 | SACS (peptide sequence: NADYNITTR, peptide start residue: 3040) (UniProt Q9NZJ4) | 0.488
34 | UniProt Q9UK61 (peptide sequence: TVLGEYNLFSR, peptide start residue: 1020) | -0.701
35 | VTI1B (peptide sequence: YGIYAVENEHMNR, peptide start residue: 112) (UniProt Q9UEU0) | -0.243
36 | UniProt Q9UI30 (peptide sequence: TMHHLLLEVEVIEGTLQCPESGR, peptide start residue: 83) | 0.237
37 | ZC3H7B (peptide sequence: ASSSMGAPR, peptide start residue: 674) (UniProt Q9UGR2) | -0.138

Individual results from above.
log2 fold change with VPS54 (peptide sequence: EPTGDSHSLYVAPSLVTDQHR, peptide start residue: 43) (UniProt Q9P1Q0) is entered as -0.651
log2 fold change with EVL (peptide sequence: SPLQSQPHSR, peptide start residue: 354) (UniProt Q9UI08) is entered as 0.207
